Source: PubChem BioAssay AID504784 (Drosophila RNAi Screening Center, 2011)

Aim: 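Genome-wide knock-down for genes giving too much or too little stored lipid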 (primary screen)
System: Drosophila Kc167 embryonic cells
Reagent: long dsRNA against Drosophila genes, about 250 ng dsRNA per well
Duration: 4 days
Treatment: cells fed 400 µM oleic acid bound to BSA
Detection: 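Microscope images give a droplet-to-nucleus area ratio, taken as log and converted to a screen-wide B-score; higher values mean greater lipid storage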
Scale: droplet/nuclear area B-score: higher = more stored lipid (overstorage)
The deposit covers about 17,000 reagents; below is a random part of those that have a named target and a result. 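Each column is one replicate's B-score; the combined score over replicates was not deposited, so single values may mislead.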 The numbers tell different reagents against one gene apart. A plus sign joins genes that one reagent is predicted to hit. Further read-outs or replicates are left out here.

Silencing of yrt resulted in: droplet/nuclear area B-score, replicate 1 = 2.26.
Silencing of CG5767 came out at: droplet/nuclear area B-score, replicate 1 = -0.874.
For Cyp9f2, the entry reads droplet/nuclear area B-score, replicate 1 = -0.153.
Cyp6d2 showed droplet/nuclear area B-score, replicate 1 = 0.577.
Sse showed droplet/nuclear area B-score, replicate 1 = 0.68.
mus304 gave droplet/nuclear area B-score, replicate 1 = -0.818.
With knock-down of Hmt4-20, the screen gave droplet/nuclear area B-score, replicate 1 = 1.09.
Against dany, the entry reads droplet/nuclear area B-score, replicate 1 = -1.1.
With knock-down of Daao1 the results were droplet/nuclear area B-score, replicate 1 = -0.378.
After knock-down of CG3347, the record shows droplet/nuclear area B-score, replicate 1 = -0.796.
CG13056 scored droplet/nuclear area B-score, replicate 1 = 1.1.
For Coop, the entry reads droplet/nuclear area B-score, replicate 1 = -0.0141.
With knock-down of CG15605 the results were droplet/nuclear area B-score, replicate 1 = -0.314.
Against CG7239 #1 the deposit lists droplet/nuclear area B-score, replicate 1 = -0.0217.
CG7239 #2 showed droplet/nuclear area B-score, replicate 1 = 0.995.
Cortactin gave droplet/nuclear area B-score, replicate 1 = -0.802.
With knock-down of CG32281 the results were droplet/nuclear area B-score, replicate 1 = -0.615.
After knock-down of CG30416, the screen gave droplet/nuclear area B-score, replicate 1 = -0.0203.
Silencing of epsilonCOP gave: droplet/nuclear area B-score, replicate 1 = -0.496.
Depletion of lncRNA:roX2 came out at: droplet/nuclear area B-score, replicate 1 = -1.36.
For nocte, the values are droplet/nuclear area B-score, replicate 1 = -1.29.
After knock-down of CG14625, the record shows droplet/nuclear area B-score, replicate 1 = -2.99.
Against CalpB, the values are droplet/nuclear area B-score, replicate 1 = -0.14.
Knock-down of Mcm3 resulted in: droplet/nuclear area B-score, replicate 1 = 2.54.
After knock-down of CG10916, the screen gave droplet/nuclear area B-score, replicate 1 = -1.57.
CG9289 scored droplet/nuclear area B-score, replicate 1 = -1.72.
After knock-down of MED23 + CG3700 #1 the results were droplet/nuclear area B-score, replicate 1 = -0.929.
Against MED23 + CG3700 #2 the deposit lists droplet/nuclear area B-score, replicate 1 = 1.74.

Quoted from above, 3 entries:
CG13056: droplet/nuclear area B-score, replicate 1 = 1.1
Coop: droplet/nuclear area B-score, replicate 1 = -0.0141
CG15605: droplet/nuclear area B-score, replicate 1 = -0.314
